Experimental findings from patent US20110076234A1 (MOLMED, published 2011) are described below.

No constants are given. Whether binding was seen depends on the method and setting. Binding calls can cover weak binding; strength is not graded here.

This experiment deals with Human αvβ3 integrin (purified) (human). Briefly: competitive ELISA: biotinylated FN-I5/streptavidin-peroxidase on αvβ3-coated plates. A general note: ELISA stands for enzyme-linked immunosorbent assay.

With LQCISTGNGRGEWKCE [Loop-GNGRG peptide of FN-I5 (peptide corresponding to the entire 256-271 loop of FN-I5)], the binding entry is “binds”.
